No constants are given. Whether binding was seen depends on the method and setting. Binding seen in cells or lysates may run through a third protein. A yes stands for co-enrichment or nearness to the bait. Other partners may have been found.
Target: KCMF1–3×Flag (wild type) (human) (UniProt Q9P0J7)
Test: affinity purification with mass spectrometry; anti-Flag M2 IP of KCMF1-3×Flag transfected in WT or ΔUBR4 HEK293T cells, 0.2% NP-40 lysis

Protein sequences, listed by entry. Tags and fused reporters are not part of them.
UniProt Q9P0J7: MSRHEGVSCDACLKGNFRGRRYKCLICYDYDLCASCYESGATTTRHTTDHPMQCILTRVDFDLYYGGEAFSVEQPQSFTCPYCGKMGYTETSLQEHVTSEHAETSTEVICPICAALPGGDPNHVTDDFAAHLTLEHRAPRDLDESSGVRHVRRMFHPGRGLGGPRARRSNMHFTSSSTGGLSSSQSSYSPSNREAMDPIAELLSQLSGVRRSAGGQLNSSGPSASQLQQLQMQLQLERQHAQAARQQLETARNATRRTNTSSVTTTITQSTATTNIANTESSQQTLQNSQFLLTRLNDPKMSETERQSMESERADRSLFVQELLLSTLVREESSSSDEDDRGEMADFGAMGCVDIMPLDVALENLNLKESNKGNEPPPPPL

binding: binds
B1: NIPSNAP3A (endogenous) (protein, UniProt Q9UFN0 1-247)
chain: MLVLRSALTRALASRTLAPQMCSSFATGPRQYDGIFYEFRSYYLKPSKMNEFLENFEKNAHLRTAHSELVGYWSVEFGGRMNTVFHIWKYDNFAHRTEVRKALAKDKEWQEQFLIPNLALIDKQESEITYLVPWCKLEKPPKEGVYELATFQMKPGGPALWGDAFKRAVHAHVNLGYTKLVGVFHTEYGALNRVHVLWWNESADSRAAGRHKSHEDPRVVAAVRESVNYLVSQQNMLLIPTSFSPLK
